Assay results reported in PubChem BioAssay AID1671190 (National Center for Advancing Translational Sciences (NCATS), 2021).
“And” between values parts separate entries of the source, which are not always exact repeats. Equal values may be shown once. The whole screen tested about 580,000 compounds, of which about 6,100 (1.1%) were called active. This list was built around the results that the source calls inconclusive (neither active nor inactive); the mix of calls is not that of the screen. The call rests on the fitted dose curve; in most records, active means well fitted inhibition curve with a large enough effect; inconclusive means small, poorly fitted or top-dose-only effect, or another doubt; inactive means no such curve, though single readings can be large or run the other way. A potency beside an inconclusive call is a rough fit, not a confirmed value.

Sequences of proteins named here, by UniProt entry; tags and fusion partners are left off. A change or cut given only in a name is not applied to a line headed by its entry.
UniProt P18054: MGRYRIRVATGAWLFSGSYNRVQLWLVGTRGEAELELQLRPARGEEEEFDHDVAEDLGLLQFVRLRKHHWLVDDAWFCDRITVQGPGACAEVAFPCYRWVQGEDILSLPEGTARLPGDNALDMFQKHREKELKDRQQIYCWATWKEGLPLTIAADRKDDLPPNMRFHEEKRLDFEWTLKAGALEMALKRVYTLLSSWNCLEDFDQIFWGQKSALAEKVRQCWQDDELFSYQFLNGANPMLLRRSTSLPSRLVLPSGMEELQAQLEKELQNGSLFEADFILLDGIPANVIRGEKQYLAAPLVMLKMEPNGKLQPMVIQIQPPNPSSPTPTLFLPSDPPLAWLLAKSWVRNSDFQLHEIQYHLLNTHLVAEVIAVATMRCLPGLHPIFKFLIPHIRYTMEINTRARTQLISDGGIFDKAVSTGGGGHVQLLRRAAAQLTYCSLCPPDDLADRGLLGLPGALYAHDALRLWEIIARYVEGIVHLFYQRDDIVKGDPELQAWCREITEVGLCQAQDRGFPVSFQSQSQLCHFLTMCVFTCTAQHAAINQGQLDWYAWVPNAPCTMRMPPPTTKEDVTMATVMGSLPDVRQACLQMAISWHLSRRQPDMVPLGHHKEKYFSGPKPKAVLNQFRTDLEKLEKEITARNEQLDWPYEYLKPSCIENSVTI

The molecules below were run against Polyunsaturated fatty acid lipoxygenase ALOX12 (Homo sapiens) (UniProt P18054) (assay: Primary qHTS assay for inhibitors of human arachidonate 12S-lipoxygenase (ALOX12): Round 2). Conditions: purified 12hLO, xylenol orange hydroperoxide absorbance; series mostly up to 108 µM.
In short: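 Purified human 12hLO at 150 nM in 25 mM Hepes, 0.01% Triton X-100, pH 7.0, preincubated 15 min at room temperature with compound. Reaction started with 40 uM arachidonic acid, 30 min at room temperature. Hydroperoxide measured by Fe-xylenol orange, 573/405 nm absorbance ratio.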
Potency means the concentration at half of the fitted maximal effect.

| SMILES | Potency |
| --- | --- |
| Nc1cc2nsnc2cc1Br | inconclusive: 6.31 µM [inhibitor, partial curve, poor fit] |
| O=C(Cc1c(Cl)cccc1Cl)Nc1ccc(S(=O)(=O)Nc2ncccn2)cc1 | inconclusive: 158 µM [inhibitor, partial curve, poor fit] |
| Cc1cc[n+](-c2nc([O-])sc2/C=N/Nc2ccc([N+](=O)[O-])cc2)cc1 | inconclusive: 44.7 µM [inhibitor, partial curve, poor fit] |
| CSc1nc(-c2ccccc2)nc2ccccc12 | inconclusive: 141 µM [inhibitor, single point] |
| O=c1c(-c2ccc(O)cc2)coc2cc(O)cc(O)c12 | inconclusive: 5.44 µM [inhibitor, partial curve, poor fit] and inconclusive: 112 µM [inhibitor, single point] |
| COc1ccc(NC(=O)CCS(=O)(=O)c2cc(Br)cc3c2N(C(C)=O)CC3)c(OC)c1 | inconclusive: 25.1 µM [inhibitor, partial curve] |
| CCCCC(=O)NC(c1ccc([N+](=O)[O-])cc1)c1c(O)ccc2ccccc12 (configuration not stated) | inactive |
| N#C/C(=C\c1ccccc1Br)C(=O)NC1CC1 | inactive |
| N#C/C(=C\c1cccc([N+](=O)[O-])c1)C(=O)Nc1cccnc1 | inconclusive: 6.31 µM [inhibitor, full curve, poor fit] |
| Cc1cc(C(=O)NCC(C)C)ccc1N | inconclusive: 100 µM [inhibitor, single point] |
| Cc1cc(C(=O)O)n(C(C)(C)C)n1 | inconclusive: 39.8 µM [inhibitor, partial curve, poor fit] |
| CCN1CCN(c2ccc(N=Cc3ccc(O)cc3O)cc2)CC1 | inactive |
| CCN1CCCC1CNC(=O)CCNc1nc(Cl)nc2nc[nH]c12 (configuration not stated) | inconclusive: 100 µM [inhibitor, single point] |
| COc1ccc(Cl)cc1CN1CCN(c2nc(C)cc(C)c2C#N)CC1 | inactive |
| CN(C)C(=S)c1ccc2ccccc2n1 | inconclusive: 39.8 µM [inhibitor, partial curve, poor fit] |
| NC(c1ccccc1)c1csc(NC(=O)NCC2CCCCC2)n1 (configuration not stated) | inactive |
| CC(C)CCNC(=O)c1ccc2c(Cl)c3c(nc2c1)CCCC3 | inconclusive: 2 µM [inhibitor, full curve, poor fit] |
| CC(=O)c1ccc(NC(=O)CN2C(=O)/C(=C/C=C/c3ccccc3)SC2=S)cc1 | inactive |
| CCOC(=O)c1c(CSc2ccc(C)cc2)n(C)c2cc(Br)c(O)c(CN(C)C)c12 | inconclusive: 50.1 µM [inhibitor, partial curve, poor fit] |
| O=C(CN1C(=O)NC2(CCCC2)C1=O)Nc1cccc2cccnc12 | inactive |
| Cn1nc(C(=O)NCC2CCC2)c2ccccc2c1=O | inconclusive: 50.1 µM [inhibitor, partial curve, poor fit] |
| O=C(NCC(=O)N(Cc1ccccc1)C(C(=O)NC1CCCC1)c1cccnc1)c1ccco1 (configuration not stated) | inconclusive: 15.8 µM [inhibitor, full curve, poor fit] |
| CC12CC3CC(C)(C1)CC(C(=O)N1CCCC1)(C3)C2 | inactive |

| SMILES | Potency |
| --- | --- |
| COc1ccc(N=C2NC(=O)/C(=C\c3ccco3)S2)cc1 | inactive |
| COc1cc(NC(=O)c2ccc(C)cc2)c(OC)cc1NC(=O)CN1CCCCC1 | inactive |
| CC(C)Oc1ccc(NC(=O)CCCc2cccs2)cc1 | inactive |
| CCOC(=O)Nc1ccc2c(c1)N(C(=O)CCN1CCOCC1)c1ccccc1S2 | inconclusive: 35.5 µM [inhibitor, single point] |
| O=C(NCC12CCCC=C1N(Cc1ccccc1)C(=O)CC2)C1CCC1 (configuration not stated) | inactive |
| O=C(/C(C=Nc1cc2c(oc1=O)CCCC2=O)=C(\O)c1ccccc1)c1ccccc1 | inconclusive: 15.8 µM [inhibitor, full curve, poor fit] |
| O=C(O)CCC(=O)NN1C(=O)c2ccccc2NC1c1ccco1 (configuration not stated) | inactive |
| CCOc1ccc(-c2nc3cc(NC(=O)c4cccc(C)c4)ccc3o2)cc1 | inconclusive: 35.5 µM [inhibitor, partial curve, poor fit] |
| Oc1c(Br)cc(Br)cc1/C=N/n1c(-c2ccccc2)n[nH]c1=S | inconclusive: 112 µM [inhibitor, single point] |
| Cc1cc(Cl)cc(C)c1OCCCCn1ccnc1 | inconclusive: 70.8 µM [inhibitor, partial curve, poor fit] |
| O=C(CCCc1c[nH]c2ccccc12)N1CCCC1c1ccc(F)cc1 (configuration not stated) | inconclusive: 44.7 µM [inhibitor, partial curve, poor fit] |
| COc1ccc(-c2onc(C)c2C)cc1S(=O)(=O)NC1CCCCC1 | inconclusive: 17.8 µM [inhibitor, partial curve, poor fit] |
| CNS(=O)(=O)c1cc(NS(=O)(=O)c2ccc(Br)cc2Cl)ccc1C | inconclusive: 50.1 µM [inhibitor, partial curve, poor fit] |
| CC(C)[C@@H]1NC(=O)c2cc([N+](=O)[O-])cc(I)c2OCC[C@@H](C(N)=O)NC(=O)[C@H](CCC(=O)O)NC1=O | inconclusive: 50.1 µM [inhibitor, partial curve, poor fit] |
| N/C(=N\OC(=O)c1ccc(Cl)cc1Cl)c1ccncc1 | inconclusive: 35.5 µM [inhibitor, partial curve, poor fit] |
| CCN1C(=O)[C@H]2[C@@H](c3ccc(OC)cc3)N[C@]3(CCCN(CC4CCCCC4)C3=O)[C@H]2C1=O | inconclusive: 112 µM [inhibitor, single point] |
| C=Cc1ccc(C(=O)NC2CCCN(Cc3ccccc3F)C2)cc1 (configuration not stated) | inconclusive: 141 µM [inhibitor, single point] |
| CCOc1ccccc1CNC(=O)c1cccc2c1CCN2C(=O)CC | inactive |
| O=c1[nH]c(CSc2nc3ccccc3s2)nc2cc(Cl)ccc12 | inconclusive: 44.7 µM [inhibitor, partial curve, poor fit] |
| C[C@@H]1CN(C(=O)c2cc(-c3ccco3)nc3c(Cl)cccc23)C[C@]1(C)O | inconclusive: 8.91 µM [inhibitor, full curve, poor fit] |
| COCC(C)NC(=S)NCCc1ccc(Cl)cc1Cl (configuration not stated) | inconclusive: 44.7 µM [inhibitor, partial curve, poor fit] |
| CCn1c(SC(C)C)nnc1C1CCN(S(=O)(=O)c2ccc(OC)cc2)CC1 | inconclusive: 22.4 µM [inhibitor, partial curve, poor fit] |
| CCOc1ccc(N(CC(=O)Nc2cccc(OC)c2)S(=O)(=O)c2c(C)noc2C)cc1 | inactive |

3 entries picked at random from the list so far, as already listed:

| SMILES | Potency |
| --- | --- |
| N#C/C(=C\c1ccccc1Br)C(=O)NC1CC1 | inactive |
| CCOC(=O)c1c(CSc2ccc(C)cc2)n(C)c2cc(Br)c(O)c(CN(C)C)c12 | inconclusive: 50.1 µM [inhibitor, partial curve, poor fit] |
| CNS(=O)(=O)c1cc(NS(=O)(=O)c2ccc(Br)cc2Cl)ccc1C | inconclusive: 50.1 µM [inhibitor, partial curve, poor fit] |

(next part)

| SMILES | Potency |
| --- | --- |
| Cc1[nH]c(SCC(=O)NCCc2ccccc2F)nc1Cc1ccccc1 | inactive |
| Cc1ccnc(N(C(=O)Nc2ccccc2)C2=NCC(C)(C)S2)c1 | inactive |
| COc1ccc(CN2CCN(C(=O)c3cccnc3)CC2)cc1Br | inconclusive: 0.282 µM [inhibitor, full curve, poor fit] |
| COc1ccc(S(=O)(=O)Nc2ccc(O)c(Sc3nc4ccccc4s3)c2)cc1 | active: 44.7 µM and active: 22.4 µM |
| COc1cc(C#N)ccc1OC(=O)c1oc2ccccc2c1C | inconclusive: 126 µM [inhibitor, single point] |
| COc1ccc(OCC(=O)N2CCC(n3nccc3NC(=O)C3CC3)CC2)cc1 | inactive |
| COc1ccc(OC)c(NC(=O)C2(C)CCN2C(=O)Cc2ccc(Cl)cc2Cl)c1 (configuration not stated) | inactive |
| CCCc1[nH]n(-c2nc3ccccc3s2)c(=O)c1C=NCC1CCCO1 (configuration not stated) | inconclusive: 3.16 µM [inhibitor, full curve, poor fit] |
| Oc1c(Cl)cc(Cl)c(Cl)c1Sc1c(O)c(Cl)cc(Cl)c1Cl | inconclusive: 5.01 µM [inhibitor, full curve, poor fit] |
| O=C(O)[C@H]1O[C@H](Oc2cc3oc(-c4ccccc4)cc(=O)c3c(O)c2O)[C@H](O)[C@@H](O)[C@H]1O | inconclusive: 5.62 µM [inhibitor, full curve, poor fit] |
| Cc1csc2nc(CNS(=O)(=O)c3ccc4c(c3)OCCO4)cn12 | inactive |
| CCN(CC)CCN(Cc1cc2ccc(C)c(C)c2[nH]c1=O)C(=S)NCc1ccco1 | inconclusive: 44.7 µM [inhibitor, partial curve, poor fit] |
| CC1(C)N=C(N)N=C(N)N1c1cccc(CC(=O)Nc2ccccc2)c1 | inactive |
| COc1ccc(NC(=O)CN(C)C(=O)c2ccc(NC3CC3)c([N+](=O)[O-])c2)cc1 | inconclusive: 100 µM [inhibitor, partial curve, poor fit] |
| CCCCc1c(-c2ccc(OC)c(OC)c2)ncn1CCc1ccccc1OC | inconclusive: 112 µM [inhibitor, single point] |
| N#CC1=C(N)OC2=C(C(=O)CC(c3ccccc3)C2)C1c1ccccc1Br (configuration not stated) | inconclusive: 1.12 µM [inhibitor, full curve, poor fit] |
| N#Cc1ccccc1COc1cccc2c1CCCC2O (configuration not stated) | inconclusive: 100 µM [inhibitor, single point] |
| Nc1c(O)ccc2c1C(=O)c1ccccc1C2=O | inconclusive: 20 µM [inhibitor, partial curve, poor fit] |
| CC1(C)CC(=O)c2cnn(-c3nc4ccccc4[nH]3)c2C1 | inactive |
| OCc1ccc(-c2ccc(-c3ccc(CO)s3)o2)s1 | inconclusive: 35.5 µM [inhibitor, partial curve, poor fit] |
| Cn1ncc(C(=O)NCc2cccs2)c1-n1cccc1 | inconclusive: 7.08 µM [inhibitor, partial curve, poor fit] |

Reformatted: entries from further up.
SMILES | Potency
CNS(=O)(=O)c1cc(NS(=O)(=O)c2ccc(Br)cc2Cl)ccc1C | inconclusive: 50.1 µM [inhibitor, partial curve, poor fit]
C[C@@H]1CN(C(=O)c2cc(-c3ccco3)nc3c(Cl)cccc23)C[C@]1(C)O | inconclusive: 8.91 µM [inhibitor, full curve, poor fit]
